Sequences and labels used below:
B1: F9 (antibody, V domains shown)
VH: QVQLVQSGAEVKKPGASVQVSCKASGYTFTSYYMHWVRQAPGQGLEWMGIINPSGGSTSYAQKFQGRVTMTRDTSTSTVYMELSSLRSEDTAVYYCARQGGAQWLVLAFDIWGQGTMVTVSS
VL: EIVLTQSPGTLSLSPGERATLSCRASQSVSSYLAWYQQKPGQPPRLLIYGASSRATGIPDRFSGGGSGTDFTLTISRLEPEDFAVYYCQQYDSSPYTFGQGTKLEIK
B2: B2 (antibody, V domains shown)
VH: QVQLVQSGAEVKKPGASVKVSCKASGYTFTSYYMHWVRQAPGQGLEWMGIINPSGGSTSYAQKFRGRVTMTRDTSTSTVYMELSSLRSEDTAVYYCARGDYDILTDYYYNMDVWGQGTTVTVSS
VL: DIQMTQSPSAMSASVGDRVTITCRASQGISNYLAWFQQKPGKVPKRLIYAASSLQSGVPSRFSGSGSGTEFTLTISSLQPEDFATYYCLQHNSYPYTFGQGTKLEIK
B3: E23 (antibody, V domains shown)
VH: QVQLVQSGAEVRKPGASVKVSCKASGYTFTGYYMHWVRQAPGQGLEWMGWINSYSGGANYAQKFQDRVTMTRDTSVSTASMELSRLRSDDTAVYYCARDGSGWYGSYFDFWGQGTLVTVSS
VL: DIVMTQTPLSSPVTLGQPASISCRSSQSLVHSDGNTYLSWLQQRPGQPPRLLIYKISNRFSGVPDRFSGSGAGTDFTLKISRVEAEDVGFYYCIQTTQFPLTFGGGTKVEIK
B4: L22 (antibody, V domains shown)
VH: EVQLLESGGGLVQPGGSLRLSCAASGFTFSSYAMGWVRQTPGKGLEWVSTISGRGGDTYYADSVKGRFTISRDNSKNTLYLQMNSLRAEDTAIYYCAKERGLGFDYWGQGTLVTVSS
VL: DIVMTQTPLSLPVTPGEPASISCRSSQSLLDSDDGNTYLDWYLQKPGQSPQLLIYTLSYRASGVPDRFSGSGSGTDFTLKISRVEAEDVGVYYCMQHLEFPLTFGGGTKVEIK
B5: E9 (antibody, V domains shown)
VH: QVQLVQSGAEVKKPGASVKVSCKASGYTFTSYYMHWVRQAPGQGLEWMGVINSSGGSTSYAQKFQGRVTMTRDTSTSTVYMDLSSLRSEDTAVYYCARGYCTNGVYYDEDFDYWGQGTLVTVSS
VL: DIQMTQSPSSLSASVGDRVTITCRASQGISHYLAWFQQKPGKAPTSLIYAASSLQSGVPSKFSGSGSGTDFTLTISSLQPEDFATYYCQQYNSYPLTFGGGTKVEIK
B6: J8 (antibody, V domains shown)
VH: QVHLVQSGAEVKKPGASVKVSCKASGYTFTIYYIHWVRQAPGQGLEWMGIINPSGGSTSYAQKFQGRVTMTRDTSTSTVYMELSSLRSEDTAVYYCSGNDYVDYVTTDYYGMDVWGQGTTVTVSS
VL: DIQMTQSPSSLSASVGDRVTITCRASQGISNYLAWFQQKPGKAPKSLIYAASSLQSGVPSKFSGSGSGTDFTLTISSLQPEDFATYYCQQYNSSPYTFGQGTKLEIK
B7: O24 (antibody, V domains shown)
VH: QVQLVQSGAEVKKPGASVKVSCKASGYTFTSYYLHWVRQAPGHGLEWMAIINPSGGSTSYAQKFLGRVTMTRDTSTNTVYMELSSLRSEDTAVYYCARERQQLDYYYFAMDVWGQGTTVTVSS
VL: DIQMTQSPSSLSASVGDRVTITCRASQGISNYLAWFQQKPGKAPKSLIYAASSLQSGVPSKFSGSGSGTDFTLTISSLQPEDFATYYCQQYNSYPPTFGQGTKVEIK
B8: B16-v2 (antibody, V domains shown)
VH: QVQLVQSGAEVKKPGASVKVSCKASGYTFTSYYMHWVRQAPGQGLEWMGIIDPSGGSTSYAQKFQGRVTMTRDTSTNTVYMDLSSLRSEDTAVYYCARQGRYVGSYLDYWGQGTLVTVSS
VL: DIQMTQSPSSLSASVGDRVTITCRASQGISNYLAWFQQKPGKAPKSVIYAASSLQSGVPSKFSGSGSGTDFTLTISSMQPEDFATYYCQQYNSYPYTFGQGTKLEIK
B9: G16 (antibody, V domains shown)
VH: QVQLVQSGAEVKKPGASVQVSCKASGYTFTSYYMHWVRQAPGQGLEWMGIINPSGGSTSYAQKFQGRVTMTRDTSTSTVYMELSSLRSEDTAVYYCARQGGAQWLVLAFDIWGQGTMVTVSS
VL: EIVLTQSPGTLSLSPGERATLSCRASQSVSSYLAWYQQKPGQAPRLLIYGASSRATGIPDRFSGGGSGTDFTLTISRLEPEDFAVYYCQQYGSSPYTFGQGTKLEIK
B10: A18 (antibody, V domains shown)
VH: QVTLRESGPALVKSTQTLTLTCTFSGFSLSTSGMCVSWIRQTPGKALEWLALIDWDDNKYYSTSLKTRLIISKDTSKNQVVLTMTNMEPVDTATYYCARIRGYSGSYDAFDIWGQGTMVTVSS
VL: DIVMTQSPLSLPVTPGEPASISCRSSQSLLHSNGYNYLDWYLQKPGQSPHILLYLGSNRAPGVPDRFSGSGSGTDFTLKISRVEAEDVGVYYCMQALQTPFTFGPGTKVDIK

The chains behind the UniProt entries cited, without tags or fusion partners. Where a name states a change or a piece, a line headed by the entry shows the natural chain unless it says otherwise.
UniProt Q9NYJ7: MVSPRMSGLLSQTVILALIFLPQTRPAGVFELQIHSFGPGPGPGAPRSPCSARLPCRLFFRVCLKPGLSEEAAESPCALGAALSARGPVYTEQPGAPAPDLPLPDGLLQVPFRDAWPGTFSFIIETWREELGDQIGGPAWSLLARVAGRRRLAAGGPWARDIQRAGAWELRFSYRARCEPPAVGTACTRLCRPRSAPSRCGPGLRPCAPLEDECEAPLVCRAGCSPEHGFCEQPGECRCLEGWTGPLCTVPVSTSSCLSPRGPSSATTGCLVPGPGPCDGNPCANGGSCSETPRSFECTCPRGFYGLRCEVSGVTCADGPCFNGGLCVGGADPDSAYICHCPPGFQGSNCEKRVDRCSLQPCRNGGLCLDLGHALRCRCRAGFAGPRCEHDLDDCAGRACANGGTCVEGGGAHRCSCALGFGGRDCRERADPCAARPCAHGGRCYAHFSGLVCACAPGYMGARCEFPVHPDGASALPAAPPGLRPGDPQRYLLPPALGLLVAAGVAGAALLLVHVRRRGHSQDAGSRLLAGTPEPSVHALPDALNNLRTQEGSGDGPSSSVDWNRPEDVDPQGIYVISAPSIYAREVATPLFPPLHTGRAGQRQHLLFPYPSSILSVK

No constants are given. Whether binding was seen depends on the method and setting. Some results given as binding are weak or reduced against the parent protein; the word gives no strength.

The first test deals with Recombinant Human DLL3 Protein (amino acids Ala27-Ala479, cat #9749-DL, R&D Systems) (human) (UniProt Q9NYJ7). Briefly: BLI, Octet HTX.
B1: the binding result is given as “binds”.

The target in another test is Histidine-tagged DLL3 antigen (Homo sapiens (Human)) (UniProt Q9NYJ7). Nature of the test: Carterra array SPR, antibody immobilized, DLL3-His injected.
For the molecule B2, the binding result was “binds”. As for B3, the binding result was “binds”. With B4, the binding entry was “binds”. For B5, the binding result is “binds”.

With B6, the binding result is reported as “binds”. Regarding B7, the binding result is listed as “binds”. B8: the binding result is reported as “binds”.

As for B1, the binding result is given as “binds”. Same read-out and setting: as for B9, the entry is “binds”; as for B10, “binds”.

For the origin of these results see patent publication US20240216557A1, “RADIOLIGAND BINDING TO ANTI-DLL3 ANTIBODIES FOR PRETARGETED PET IMAGING AND THERAPEUTIC USES THEREOF” (Memorial Sloan-Kettering Cancer Center, priority 2021, published 2024).
